In patent publication EP1749519A1, “Dosage form with pH-independent sustained release for active substances with pH-dependent solubility” (Schering Aktiengesellschaft, priority 2005, dated 2007):

Legend:
[1] = acidic pH values (pH < 4)

C[C@@H]1CN(Cc2ccc(F)cc2)CCN1C(=O)COc1ccc(Cl)cc1NC(N)=O [Piperazinharnstoff, (2R)-1-((4-chloro-2-(ureido)phenoxy)methyl)carbonyl-2-methyl-4-(4-fluorobenzyl)piperazin]
Wirkstofffreisetzung im Medium mit pH 1: geringer als erwartet
Löslichkeit [1]: höherer Löslichkeit bei sauren pH-Werten
